# PMC7886895
# Sequences of proteins named here, by UniProt entry; tags and fusion partners are left off. A change or cut given only in a name is not applied to a line headed by its entry.
# UniProt Q920B9: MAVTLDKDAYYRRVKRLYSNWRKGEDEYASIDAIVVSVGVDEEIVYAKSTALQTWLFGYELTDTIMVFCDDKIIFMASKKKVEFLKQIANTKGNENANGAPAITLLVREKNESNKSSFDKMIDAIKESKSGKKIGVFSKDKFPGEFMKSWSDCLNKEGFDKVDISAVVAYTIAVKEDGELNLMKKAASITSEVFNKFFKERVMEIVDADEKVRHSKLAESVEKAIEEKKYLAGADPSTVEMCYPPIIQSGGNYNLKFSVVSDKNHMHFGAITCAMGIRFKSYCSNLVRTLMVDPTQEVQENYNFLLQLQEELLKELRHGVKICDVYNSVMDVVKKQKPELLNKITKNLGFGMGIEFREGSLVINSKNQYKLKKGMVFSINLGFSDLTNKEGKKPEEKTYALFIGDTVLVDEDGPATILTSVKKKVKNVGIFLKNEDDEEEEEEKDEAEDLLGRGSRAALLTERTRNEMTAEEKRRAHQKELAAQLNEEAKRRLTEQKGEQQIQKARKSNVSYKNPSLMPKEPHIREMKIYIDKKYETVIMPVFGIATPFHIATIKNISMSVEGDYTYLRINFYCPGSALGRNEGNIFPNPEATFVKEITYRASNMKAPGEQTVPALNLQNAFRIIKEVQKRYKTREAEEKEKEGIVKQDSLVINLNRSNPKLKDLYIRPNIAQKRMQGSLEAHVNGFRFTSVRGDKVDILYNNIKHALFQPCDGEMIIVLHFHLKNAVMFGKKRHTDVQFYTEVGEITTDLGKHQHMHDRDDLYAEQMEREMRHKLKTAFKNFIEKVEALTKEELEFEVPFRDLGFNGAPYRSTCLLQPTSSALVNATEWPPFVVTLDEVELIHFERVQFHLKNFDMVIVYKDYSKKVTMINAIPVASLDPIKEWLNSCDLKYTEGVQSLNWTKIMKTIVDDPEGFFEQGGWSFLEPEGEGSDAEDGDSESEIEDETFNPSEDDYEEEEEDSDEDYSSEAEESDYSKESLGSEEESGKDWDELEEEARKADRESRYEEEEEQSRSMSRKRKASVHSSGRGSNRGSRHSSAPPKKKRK
# No constants are given. Whether binding was seen depends on the method and setting. Binding seen in cells or lysates may run through a third protein. Some entries that bind do so weakly or less than the wild type. Tags and fused reporters may be left off the sequences shown.
# Target: T1, HMGA2 tagged C-terminally with MYC and HIS (WT HMGA2-MYC-HIS) (UniProt P52927)
# T1 sequence: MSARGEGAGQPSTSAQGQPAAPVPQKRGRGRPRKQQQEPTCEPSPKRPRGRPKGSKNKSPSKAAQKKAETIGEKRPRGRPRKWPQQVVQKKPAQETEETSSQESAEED
# Experiment: co-IP; nuclear protein extracts (sonicated, soluble chromatin and proteins; 500 ug) from Hmga2-/- MEF non-transfected or stably transfected with Hmga2-myc-his; magnetic beads coated with MYC-specific antibodies, 2 h; Co-IP buffer 50 mM Tris-HCl pH 7.4, 170 mM NaCl, 0.1% Triton X-100; western blot for SUPT16, SSRP1, HIS-tag
substance,measurement,value
"FACT (facilitates chromatin transcription) complex, heterodimer of SUPT16 and SSRP1 (from UniProt Q920B9 1-1047; Q08943 1-708)",binding,binds
